According to US20210300993A1 (AVALON GLOBOCARE, published 2021):
Results are given in words; binding and its absence hold for the method and conditions named. Some results given as binding are weak or reduced against the parent protein; the word gives no strength. Where a sequence is shown, tags or fusion partners need not be part of it.

Legend:
[1] = biological target: T1, IFNγ (UniProt P01579 24-166, limits assumed); assay: solution-based assay (MicroScale Thermophoresis), Fc-fusion receptor against its ligand
T1 sequence (looked up): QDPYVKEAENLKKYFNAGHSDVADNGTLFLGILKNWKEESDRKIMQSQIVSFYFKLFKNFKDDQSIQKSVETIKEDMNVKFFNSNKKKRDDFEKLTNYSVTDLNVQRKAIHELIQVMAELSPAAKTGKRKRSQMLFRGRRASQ

[2] = biological target: T1, IFNγ; assay: MicroScale Thermophoresis
[3] = biological target: T1, IFNγ; assay: MicroScale Thermophoresis (MST), fluorescently labelled receptor fusion titrated with IFNγ
Text: FIG. 3A-3D. MST ligand binding measurements. The receptors were labeled with fluorescent dye. The ligands were purchased commercially from and dissolved in di water. (FIG. 3A) IL4Rα^QTY-Fc with IL4; (FIG. 3B) IL10Rα^QTY-Fc with IL10; (FIG. 3C) IFNγR1^QTY-Fc with IFNγ; (FIG. 3D) […].
MicroScale Thermophoresis (MST) is an optical method detecting changes in thermophoretic movement and TRIC of the protein-attached fluorophore upon ligand binding. Active labelled proteins contribute to the thermophoresis signal upon ligand binding. […] Herein ligand binding experiments were carried out with 5 nM NT647-labeled protein in 1× PBS, 10 mM DTT buffer with different concentration of arginine, against a gradient of respective ligands on a Monolith NT.115 pico instrument at 25° C. Synthesized receptors were labeled with Monolith NT™ 2nd generation protein labeling kit RED-NHS (NanoTemper Technologies) so as to obtain unique fluorescent signals. MST time traces were recorded and analyzed to obtain the highest possible signal-to-noise levels and amplitudes, >5 Fnorm units. The recorded fluorescence was plotted against the concentration of ligand, and curve fitting was performed using the Kd fit formula derived from the law of mass action. For clarity, binding graphs of each independent experiment were normalized to the fraction bound (0=unbound, 1=bound). […]

Measured: binding

B1: IFNγR1^QTY-Fc (HUMAN Interferon gamma receptor 1-Fc fusion) (Fc fusion)
chain: EMGTADLGPSSVPTPTNVTIESYNMNPIVYWEYQIMPQVPVFTVEVKNYGVKNSEWIDACINISHHYCNISDHVGDPSNSLWVRVKARVGQKESAYAKSEEFAVCRDGKIGPPKLDIRKEEKQIMIDIFHPSVFVNGDEQEVDYDPETTCYIRVYNVYVRMNGSEIQYKILTQKEDDCDEIQCQLAIPVSSLNSQYCVSAEGVLHVWGVTTEKSKEVCITIFNSSIKGSQWTPTTAAQQQYQTQSQTYTCFYIKKTETSQVAPAHHHHHHHHHHGSKLVDPRGPTIKPCPPCKCPAPNLLGGPSVFIFPPKIKDVLMISLSPIVTCVVVDVSEDDPDVQISWFVNNVEVHTAQTQTHREDYNSTLRVVSALPIQHQDWMSGKEFKCKVNNKDLPAPIERTISKPKGSVRAPQVYVLPPPEEEMTKKQVTLTCMVTDFMPEDIYVEWTNNGKTELNYKNTEPVLDSDGSYFMYSKLRVEKKNWVERNSYSCSVVHEGLHNHHTTKSFSRTPGK
modifications: labeled with NT647 RED-NHS fluorescent dye for MST
binds: all assays above
